Measured values from publication PMC4538844.

Amino acid sequences for entries named in this document (tags omitted). A change or cut given only in a name is not applied to a line headed by its entry.
UniProt Q9H6E5: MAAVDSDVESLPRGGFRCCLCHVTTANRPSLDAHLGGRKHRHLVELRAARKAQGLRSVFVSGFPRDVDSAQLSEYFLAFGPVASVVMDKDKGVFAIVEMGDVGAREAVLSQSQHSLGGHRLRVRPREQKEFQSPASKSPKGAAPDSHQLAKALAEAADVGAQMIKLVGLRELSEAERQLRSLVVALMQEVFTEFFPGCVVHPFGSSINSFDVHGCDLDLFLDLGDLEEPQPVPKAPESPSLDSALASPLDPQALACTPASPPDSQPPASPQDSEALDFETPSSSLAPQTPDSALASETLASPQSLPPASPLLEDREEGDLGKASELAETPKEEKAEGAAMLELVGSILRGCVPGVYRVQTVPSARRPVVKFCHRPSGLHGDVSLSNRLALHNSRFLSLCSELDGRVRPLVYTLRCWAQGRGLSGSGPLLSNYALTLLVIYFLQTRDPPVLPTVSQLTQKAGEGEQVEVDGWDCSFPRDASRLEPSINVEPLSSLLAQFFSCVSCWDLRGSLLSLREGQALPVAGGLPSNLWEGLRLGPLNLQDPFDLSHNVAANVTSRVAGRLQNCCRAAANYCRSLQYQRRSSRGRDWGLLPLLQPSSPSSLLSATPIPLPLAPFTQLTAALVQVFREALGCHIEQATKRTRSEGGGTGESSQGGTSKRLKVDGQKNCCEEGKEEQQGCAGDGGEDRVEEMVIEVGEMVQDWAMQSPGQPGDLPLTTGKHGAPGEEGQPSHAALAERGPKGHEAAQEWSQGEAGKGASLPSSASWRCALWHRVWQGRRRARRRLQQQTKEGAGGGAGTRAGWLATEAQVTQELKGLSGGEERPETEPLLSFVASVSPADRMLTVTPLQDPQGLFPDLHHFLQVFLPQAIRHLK
UniProt Q99755: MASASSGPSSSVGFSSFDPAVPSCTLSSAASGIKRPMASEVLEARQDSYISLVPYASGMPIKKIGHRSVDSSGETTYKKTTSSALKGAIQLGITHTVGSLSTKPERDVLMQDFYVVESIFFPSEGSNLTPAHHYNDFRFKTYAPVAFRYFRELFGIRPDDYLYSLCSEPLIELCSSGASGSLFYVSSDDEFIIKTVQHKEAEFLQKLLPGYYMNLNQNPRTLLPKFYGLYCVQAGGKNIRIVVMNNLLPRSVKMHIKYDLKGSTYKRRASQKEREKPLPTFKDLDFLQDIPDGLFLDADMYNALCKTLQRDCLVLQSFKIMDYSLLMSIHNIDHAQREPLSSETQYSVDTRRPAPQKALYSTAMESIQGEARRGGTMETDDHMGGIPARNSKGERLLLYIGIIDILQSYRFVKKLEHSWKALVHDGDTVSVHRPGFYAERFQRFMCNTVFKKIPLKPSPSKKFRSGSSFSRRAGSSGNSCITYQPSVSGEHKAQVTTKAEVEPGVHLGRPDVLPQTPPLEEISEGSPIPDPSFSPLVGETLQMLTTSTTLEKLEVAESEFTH

Legend:
[1] = molecular target: Star-PAP PRR deletion (human) (UniProt Q9H6E5); assay: co-IP; anti-FLAG IP from lysates of HEK 293 cells with transiently expressed FLAG-Star-PAP forms, blots for associated endogenous proteins; buffer A (100 mM KCl, 5 mM EDTA, 5% NP-40, RNase A); also after tBHQ or DMSO treatment, control siRNA
[2] = molecular target: Star-PAP with cysteine mutations in the core ZF structure to serine (C18S, C21S) (human) (UniProt Q9H6E5); assay: as above

binding [1]: binds
binding [2]: binds
Substance: PIPKIα (endogenous) (from UniProt Q99755 1-562) (enzyme)

No constants are given. Whether binding was seen depends on the method and setting. In cells and extracts the contact can be indirect. A result given as binding can be weak or reduced; the word gives no strength.
